The target of experiment [1] is Rab6B^Q72L R63E, GTPase domain (mouse) (UniProt P61294). Nature of the experiment: condition: typically 400 μM in the syringe into 40 μM in the cell; ITC; MicroCal PEAQ-ITC, 25 °C, 50 mM Tris pH 7.5, 100 mM NaCl, 2 mM MgCl2; typically one protein (400 μM) in the syringe into its binding protein (40 μM) in the cell; both purified.
Experiment [2] has as its target Rab6B^Q72L D49R, GTPase domain (mouse) (UniProt P61294). The description is as above.
Experiment [3] deals with Trx-tagged ELKS1_RBD (residues 849-922) (rat) (UniProt Q811U3). Kind of experiment: SEC-MALS; miniDAWN TREOS coupled with an ÄKTA pure system; procedure as for analytical gel filtration; both purified. (Size exclusion chromatography separates by hydrodynamic size, large species first.)

Chains of the proteins cited; added tags and fusions are not shown. Lines headed by an entry give the natural chain unless they say otherwise; changes in a name come on top. A line that says so, or that is headed by a name, gives the form on record, which may keep a tag or linker. Residues count along the entry.
Rab6B^Q72L R63E, GTPase domain (P61294, form named): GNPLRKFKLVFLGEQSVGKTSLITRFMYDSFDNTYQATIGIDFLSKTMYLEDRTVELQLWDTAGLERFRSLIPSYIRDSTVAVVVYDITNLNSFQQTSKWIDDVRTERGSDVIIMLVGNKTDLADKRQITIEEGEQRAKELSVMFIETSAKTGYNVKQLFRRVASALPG
Rab6B^Q72L D49R, GTPase domain (P61294, form named): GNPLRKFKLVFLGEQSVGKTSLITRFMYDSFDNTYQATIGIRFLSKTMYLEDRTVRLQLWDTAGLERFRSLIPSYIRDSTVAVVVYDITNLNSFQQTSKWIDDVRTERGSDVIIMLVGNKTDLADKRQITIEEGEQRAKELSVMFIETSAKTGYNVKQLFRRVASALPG
UniProt Q811U3, residues 849-922: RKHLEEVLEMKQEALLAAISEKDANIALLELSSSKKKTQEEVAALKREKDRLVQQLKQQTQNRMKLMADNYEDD

These are yes or no findings as the source states them, for the method shown.

Take “ELKS1_RBD, Rab-binding domain of ELKS1 (residues 849-922) (from UniProt Q811U3 849-922) (domain or fragment)”: the binding result in experiment [1] and in experiment [2] was “no binding” each time.

Take “Trx-tagged ELKS1_RBD (residues 849-922) (from UniProt Q811U3 849-922) (domain or fragment)”: the binding result in experiment [3] is given as “no binding”.

Source of the values: publication PMC10267580.
